Strings that start with PEPTIDE1 are HELM notation: dots part the residues, brackets hold end groups and non-standard residues.
Assay: general procedure: Fmoc solid-phase peptide synthesis; 2-Cl-Trt resin (cross-linking degree 1%, substitution degree 1.24 mmol/g); DIC/HOBt
Details: whole synthesis

| Substance | crude purity (method not given) | final purity (method not given) |
| --- | --- | --- |
| PEPTIDE1{[KA-CO].[Pro].[Lys].[Glu].[Lys]}$$$$V2.0 | 83.5% | 97.34% |
| PEPTIDE1{[NA].[Pro].[Lys].[Glu].[Lys]}$$$$V2.0 | 85% | 97.97% |
| TXC-Pro-Lys-Glu-Lys-OH | 87% | 96.50% |
